Measurements as given in the supplement of paper PMC6078165.
Values are relative to the signal before dosing, not to a vehicle control; the signal also falls without drug.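 The tumor cells are basal-like or mesenchymal-like triple-negative breast cancer lines cultured without fibroblasts. Reduced red signal indicates lost mitochondrial integrity, serving as a proxy for apoptotic death.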

Experiments:
Experiment in all cases: relative JC-1 red fluorescence (viability) vs pre-drug, monoculture (fraction); higher = more viable cancer cells
Settings in all cases: coculture fibroblast: none (monoculture)
BT20 = system: BT20
Procedure: (§1)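 JC-1 labelled TNBC cells grown in monoculture (density kept equal with unlabelled cancer cells) in 384-well plates in FluoroBrite medium, treated with one of 42 anticancer drugs at 0.1, 1, 10 or 100 uM. JC-1 red fluorescence (mitochondrial integrity, surrogate of apoptotic death) was read by plate reader every 8 h for 72 h. Values are normalised to each well's pre-drug value, with background from alamethicin. The stock of one drug was tenfold lower, so its dose labels may be too high. Monoculture values are repeated alongside each fibroblast plate and are averaged here.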

Hs578T = system: Hs578T
Procedure: as §1

MDAMB468 = system: MDAMB468
Procedure: as §1

MDAMB231 = system: MDAMB231
Procedure: as §1

N.N.[Cl][Pt][Cl] [Cisplatin]
relative JC-1 red fluorescence
Settings | 8 h | 16 h | 24 h | 32 h | 40 h | 48 h | 56 h | 64 h | 72 h
BT20, 0.1 µM | 0.9148 | 0.8307 | 0.763 | 0.697 | 0.653 | 0.636 | 0.608 | 0.607 | 0.598
BT20, 1 µM | 0.886 | 0.797 | 0.745 | 0.683 | 0.652 | 0.634 | 0.605 | 0.591 | 0.581
BT20, 10 µM | 0.893 | 0.815 | 0.6916 | 0.549 | 0.504 | 0.488 | 0.478 | 0.477 | 0.474
BT20, 100 µM | 0.868 | 0.475 | 0.376 | 0.3 | 0.276 | 0.266 | 0.248 | 0.245 | 0.243
Hs578T, 0.1 µM | 0.8576 | 0.722 | 0.7017 | 0.6415 | 0.606 | 0.591 | 0.563 | 0.569 | 0.563
Hs578T, 1 µM | 0.75 | 0.665 | 0.663 | 0.593 | 0.546 | 0.541 | 0.524 | 0.533 | 0.534
Hs578T, 10 µM | 0.818 | 0.672 | 0.616 | 0.517 | 0.477 | 0.459 | 0.441 | 0.451 | 0.449
Hs578T, 100 µM | 0.652 | 0.455 | 0.4896 | 0.4 | 0.358 | 0.352 | 0.339 | 0.342 | 0.339
MDAMB231, 0.1 µM | 0.744 | 0.708 | 0.671 | 0.653 | 0.607 | 0.587 | 0.555 | 0.575 | 0.57
MDAMB231, 1 µM | 0.705 | 0.6539 | 0.695 | 0.621 | 0.606 | 0.616 | 0.615 | 0.649 | 0.653
MDAMB231, 10 µM | 0.731 | 0.696 | 0.734 | 0.647 | 0.614 | 0.616 | 0.592 | 0.625 | 0.628
MDAMB231, 100 µM | 0.66 | 0.649 | 0.61375 | 0.567 | 0.504 | 0.487 | 0.465 | 0.469 | 0.458
MDAMB468, 0.1 µM | 0.89 | 0.7705 | 0.744 | 0.704 | 0.674 | 0.677 | 0.648 | 0.644 | 0.643
MDAMB468, 1 µM | 0.851 | 0.742 | 0.721 | 0.662 | 0.643 | 0.643 | 0.624 | 0.623 | 0.621
MDAMB468, 10 µM | 0.793 | 0.625 | 0.571 | 0.51 | 0.474 | 0.478 | 0.459 | 0.45 | 0.457
MDAMB468, 100 µM | 0.748 | 0.575 | 0.527 | 0.461 | 0.418 | 0.421 | 0.401 | 0.393 | 0.39

C[C@]12CC[C@@H]3c4ccc(O)cc4C[C@@H](CCCCCCCCC[S+]([O-])CCCC(F)(F)C(F)(F)F)[C@H]3[C@@H]1CC[C@@H]2O (stereo partly drawn) [Fulvestrant]
relative JC-1 red fluorescence
Settings | 8 h | 16 h | 24 h | 32 h | 40 h | 48 h | 56 h | 64 h | 72 h
BT20, 0.1 µM | 0.932 | 0.864 | 0.7619 | 0.7001 | 0.65 | 0.621 | 0.578 | 0.548 | 0.53
BT20, 1 µM | 0.909 | 0.816 | 0.799 | 0.723 | 0.685 | 0.667 | 0.638 | 0.622 | 0.609
BT20, 10 µM | 0.9888 | 0.949 | 0.932 | 0.879 | 0.876 | 0.884 | 0.874 | 0.878 | 0.876
BT20, 100 µM | 0.819 | 0.761 | 0.854 | 0.874 | 0.904 | 0.904 | 0.84 | 0.877 | 0.822
Hs578T, 0.1 µM | 0.8237 | 0.7318 | 0.668 | 0.633 | 0.607 | 0.585 | 0.568 | 0.569 | 0.562
Hs578T, 1 µM | 0.81 | 0.682 | 0.651 | 0.579 | 0.541 | 0.524 | 0.496 | 0.493 | 0.48
Hs578T, 10 µM | 0.973 | 0.931 | 0.841 | 0.838 | 0.803 | 0.78 | 0.759 | 0.751 | 0.734
Hs578T, 100 µM | 0.869 | 0.95 | 0.881 | 0.852 | 0.819 | 0.807 | 0.801 | 0.8 | 0.793
MDAMB231, 0.1 µM | 0.742 | 0.728 | 0.561 | 0.6272 | 0.585 | 0.547 | 0.509 | 0.501 | 0.485
MDAMB231, 1 µM | 0.775 | 0.775 | 0.796 | 0.817 | 0.798 | 0.743 | 0.622 | 0.668 | 0.732
MDAMB231, 10 µM | 0.861 | 0.983 | 0.737 | 0.951 | 0.935 | 0.909 | 0.891 | 0.878 | 0.873
MDAMB231, 100 µM | 0.864 | 0.815 | 0.86 | 0.8522 | 0.785 | 0.8429 | 0.781 | 0.847 | 0.725
MDAMB468, 0.1 µM | 0.893 | 0.829 | 0.765 | 0.719 | 0.692 | 0.681 | 0.654 | 0.634 | 0.623
MDAMB468, 1 µM | 0.907 | 0.816 | 0.789 | 0.726 | 0.688 | 0.681 | 0.665 | 0.643 | 0.626
MDAMB468, 10 µM | 0.9719 | 0.97 | 0.948 | 0.915 | 0.913 | 0.902 | 0.893 | 0.871 | 0.856
MDAMB468, 100 µM | 0.962 | 0.9924 | 0.813 | 0.936 | 0.9603 | 0.96032 | 0.9532 | 0.9413 | 0.9367
